{"sequences": {"note": "Amino acid sequences for entries named in this document (tags omitted).", "UniProt Q0JBA9, entry or part of it": "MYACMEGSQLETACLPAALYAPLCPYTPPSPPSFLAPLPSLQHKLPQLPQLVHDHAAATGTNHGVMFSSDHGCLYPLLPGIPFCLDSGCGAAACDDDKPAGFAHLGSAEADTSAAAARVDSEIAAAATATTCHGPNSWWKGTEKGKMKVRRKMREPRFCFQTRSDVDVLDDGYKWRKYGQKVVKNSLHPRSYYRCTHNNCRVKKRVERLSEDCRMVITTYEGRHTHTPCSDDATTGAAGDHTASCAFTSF"}, "source": "paper PMC7819943", "about": "“Rice protein-binding microarrays: a tool to detect cis-acting elements near promoter regions in rice”", "note": "The other results are listed elsewhere or left out."}
{"target": "OsWRKY34 (Oryza sativa, UniProt Q0JBA9 1-250)", "assay": "protein-binding microarray (RPBM); PBS, 2% BSA, 51.3 ng/ul salmon testes DNA, 50 uM zinc acetate, 200 nM TF, 25 C, 1 h; high values mean tight binding", "settings": "protein: recombinant; tags: N-terminal polyhistidine and DsRed monomer fusion (pET32a); label: CyDye5-dUTP incorporated in the synthesized complementary strand; 3' TTTTT single-stranded linker to array surface; dsDNA, one strand shown", "outline": "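The binding signal for each feature is its fluorescence intensity in arbitrary units. An Axon 4000B scanner was used to read a custom Agilent array that had been made double-stranded with Cy5-dUTP primer extension, blocked with 2% BSA, incubated at 25 °C for 1 h with 200 nM protein in PBS, 2% BSA, salmon testes DNA and 50 µM zinc acetate, and washed. The protein was an N-terminal polyhistidine–DsRed transcription factor fusion from E. coli BL21-CodonPlus, purified on Ni–NTA.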"}
{"sequence": "TCTCGTTCCTCTCTCTTCTCGCTGACTCGCTGTAGTTCACCGGAGTCACCTAGTGCAG", "binding signal": "8410 fluorescence intensity (a.u.)"}
{"sequence": "AGAAAGTACATCATTTTCCGCGCGCACGCTTCCCAAACTACGGAGTCACCTAGTGCAG", "binding signal": "8480 fluorescence intensity (a.u.)"}
{"sequence": "CCTCCGCCTCCGCGCCCACCGCCATGCTCCGGCCCTCCCTCGGAGTCACCTAGTGCAG", "binding signal": "8220 fluorescence intensity (a.u.)"}
{"sequence": "AGCCCTTGTCTATACGCATCCCTTCGGATTGCCAAATAAACGGAGTCACCTAGTGCAG", "binding signal": "8280 fluorescence intensity (a.u.)"}
{"sequence": "CACATAGTTGGAGGGGTTTTCTGCAAAATGGACATCTTCTCGGAGTCACCTAGTGCAG", "binding signal": "8970 fluorescence intensity (a.u.)"}
{"sequence": "AGAGGTGGAAGGGGATGGGGAGAAAAAAAAGGAGAGGGGACGGAGTCACCTAGTGCAG", "binding signal": "8410 fluorescence intensity (a.u.)"}
{"sequence": "GCCTCGAGCTCGCCGCCGCCGCCCCGCCGCCGCACACCATCGGAGTCACCTAGTGCAG", "binding signal": "8050 fluorescence intensity (a.u.)"}
{"sequence": "CTCACGCTACCCGCCCATCGATCTCGCGCCATCTCACAATCGGAGTCACCTAGTGCAG", "binding signal": "11000 fluorescence intensity (a.u.)"}
{"sequence": "CGAGCGTGTGTTAGGGGCATATCTGTGGGTGCGTGAATGTCGGAGTCACCTAGTGCAG", "binding signal": "8970 fluorescence intensity (a.u.)"}
{"sequence": "AAGCTTTACCTGGAGCCCACAACGCTATCCAAGGCTTTATCGGAGTCACCTAGTGCAG", "binding signal": "8070 fluorescence intensity (a.u.)"}
{"sequence": "AGTACAAACCATCTACAGTTGCATCTCTGCTCGATCGATCCGGAGTCACCTAGTGCAG", "binding signal": "8350 fluorescence intensity (a.u.)"}
{"sequence": "AGGAATCGTCGTCCACTGCCTACAGCAACAGCAACCAACACGGAGTCACCTAGTGCAG", "binding signal": "8290 fluorescence intensity (a.u.)"}
{"sequence": "AACTAACCAGCATTTTTCCCCAGTTCTTCGGATCTGGACACGGAGTCACCTAGTGCAG", "binding signal": "9190 fluorescence intensity (a.u.)"}
{"sequence": "TAAAAATAATTATTGTCATTGTCATAGTGTACCCTTCTGCCGGAGTCACCTAGTGCAG", "binding signal": "9650 fluorescence intensity (a.u.)"}
{"sequence": "CAGGTGGAGGTGGAGGCGGTGGCGGTGAGGGAGGCGGGCACGGAGTCACCTAGTGCAG", "binding signal": "13500 fluorescence intensity (a.u.)"}
{"sequence": "CAAAATTCTGCGTTTTTCCTATTCCTATGTTTTCTCGTTCCGGAGTCACCTAGTGCAG", "binding signal": "9240 fluorescence intensity (a.u.)"}
{"sequence": "CTTAGCAACAACCACTTCCATTCATTGGGGAGGGAAAGCGCGGAGTCACCTAGTGCAG", "binding signal": "8590 fluorescence intensity (a.u.)"}
{"sequence": "ATTCTGCCGGCCGGCCGCTGCCCTTCTTCCTCTCCGCGCGCGGAGTCACCTAGTGCAG", "binding signal": "10800 fluorescence intensity (a.u.)"}
{"sequence": "TGCTTCAATTATCCAGCTTTGGAAACTCGCTGTTTGTTTCCGGAGTCACCTAGTGCAG", "binding signal": "8510 fluorescence intensity (a.u.)"}
{"sequence": "CCATCTCCAATTCTCCATCGATCATCTATCTCTCACGATCCGGAGTCACCTAGTGCAG", "binding signal": "9120 fluorescence intensity (a.u.)"}
{"sequence": "CATTTTAGTCTACCAGCTGCATTTCTTCTGCTTTAAGGACCGGAGTCACCTAGTGCAG", "binding signal": "8650 fluorescence intensity (a.u.)"}
{"sequence": "AGAGAGAGGGGAGAGGGGTGGAAGGGGAATATGGTAGCTGCGGAGTCACCTAGTGCAG", "binding signal": "12600 fluorescence intensity (a.u.)"}
{"sequence": "TTTCTTCGTCCTCTTGGTTTCCCTTTCAATTCATTCATTTCGGAGTCACCTAGTGCAG", "binding signal": "8460 fluorescence intensity (a.u.)"}
{"sequence": "AAGTCACAAATCTCTACGTTTTTTTTCCTCGCGAGGCGTACGGAGTCACCTAGTGCAG", "binding signal": "9450 fluorescence intensity (a.u.)"}
{"sequence": "GGTTTTTTTTCAGCGAAATTTATTTTTCACCATTTACTTTCGGAGTCACCTAGTGCAG", "binding signal": "10300 fluorescence intensity (a.u.)"}
{"sequence": "GACGATAATTAGGGGCCTGTTCACTTTGATGCTATTTTTACGGAGTCACCTAGTGCAG", "binding signal": "9230 fluorescence intensity (a.u.)"}
{"sequence": "TCAATTTTTAGGTTTTTGTGTCTAGCGTTTGACCGTCCGTCGGAGTCACCTAGTGCAG", "binding signal": "8580 fluorescence intensity (a.u.)"}
{"sequence": "AGTTTCCGTCCGTTTCCGATCCGTTTTCATCCCTACACCCCGGAGTCACCTAGTGCAG", "binding signal": "13000 fluorescence intensity (a.u.)"}
{"sequence": "TCCCGGCAGTTCTTACCCTGCATCATCAGAGTGGTCATTACGGAGTCACCTAGTGCAG", "binding signal": "9320 fluorescence intensity (a.u.)"}
{"sequence": "GCGCGCGCGTCCTTCGGGCACCCTCGCACCGCACCGTCCGCGGAGTCACCTAGTGCAG", "binding signal": "8200 fluorescence intensity (a.u.)"}
{"sequence": "ACGAACCTAAGCACTTCCAAATCAAATCAATCAAAGCTCTCGGAGTCACCTAGTGCAG", "binding signal": "56100 fluorescence intensity (a.u.)"}
{"sequence": "ATGTGTGGATTTATAAGGGTGAGTATATGTGTTTCGGGAACGGAGTCACCTAGTGCAG", "binding signal": "8140 fluorescence intensity (a.u.)"}
{"sequence": "ACTACCCACTTGCATCCCTAAATTTTAGTACTTTTCTCATCGGAGTCACCTAGTGCAG", "binding signal": "9300 fluorescence intensity (a.u.)"}
{"sequence": "GGGTGGGTGATCTATCGATACAATGCATGCGTGGGCTTCTCGGAGTCACCTAGTGCAG", "binding signal": "15800 fluorescence intensity (a.u.)"}
{"sequence": "GTTTTTCTTGTTCCTTTTCTGAGCTAGATTTCTTGCTGCTCGGAGTCACCTAGTGCAG", "binding signal": "8760 fluorescence intensity (a.u.)"}
{"sequence": "CGATGGTTTGGTTTACCGCTTTGCCCCGGTTCTTCGCTTTCGGAGTCACCTAGTGCAG", "binding signal": "8580 fluorescence intensity (a.u.)"}
{"sequence": "AGAGTCGCAAGGGTAGGCAAGGTAATGCAAAATGATTATACGGAGTCACCTAGTGCAG", "binding signal": "8050 fluorescence intensity (a.u.)"}
{"sequence": "GCTTTACCTGTTTACCTCAAGTTGCAGCTGATTTTCACAACGGAGTCACCTAGTGCAG", "binding signal": "8380 fluorescence intensity (a.u.)"}
{"sequence": "CTGTTTTACAATTGTATTCCTGTCAGAATCCTGTGTTTTTCGGAGTCACCTAGTGCAG", "binding signal": "11100 fluorescence intensity (a.u.)"}
{"sequence": "CGACAAAACACCCCGATTCCACCCACCCCACCACGAAACCCGGAGTCACCTAGTGCAG", "binding signal": "8660 fluorescence intensity (a.u.)"}
{"sequence": "GTTTGTGCCGCCCCGTCGCCCGACGCCGTCACCTCCGCTCCGGAGTCACCTAGTGCAG", "binding signal": "9650 fluorescence intensity (a.u.)"}
{"sequence": "TGGGTTGGGATTTGTGCTTGTTTTTTTTTTTTGTGCGTGTCGGAGTCACCTAGTGCAG", "binding signal": "16600 fluorescence intensity (a.u.)"}
